Measured values reported in the supplement of paper PMC6411743.
± gives the standard deviation of the averaged measurements. The list shows a part of the results.

Chains of the proteins cited; added tags and fusions are not shown. Lines headed by an entry give the natural chain unless they say otherwise; changes in a name come on top.
UniProt Q12959, whole entry, looked up: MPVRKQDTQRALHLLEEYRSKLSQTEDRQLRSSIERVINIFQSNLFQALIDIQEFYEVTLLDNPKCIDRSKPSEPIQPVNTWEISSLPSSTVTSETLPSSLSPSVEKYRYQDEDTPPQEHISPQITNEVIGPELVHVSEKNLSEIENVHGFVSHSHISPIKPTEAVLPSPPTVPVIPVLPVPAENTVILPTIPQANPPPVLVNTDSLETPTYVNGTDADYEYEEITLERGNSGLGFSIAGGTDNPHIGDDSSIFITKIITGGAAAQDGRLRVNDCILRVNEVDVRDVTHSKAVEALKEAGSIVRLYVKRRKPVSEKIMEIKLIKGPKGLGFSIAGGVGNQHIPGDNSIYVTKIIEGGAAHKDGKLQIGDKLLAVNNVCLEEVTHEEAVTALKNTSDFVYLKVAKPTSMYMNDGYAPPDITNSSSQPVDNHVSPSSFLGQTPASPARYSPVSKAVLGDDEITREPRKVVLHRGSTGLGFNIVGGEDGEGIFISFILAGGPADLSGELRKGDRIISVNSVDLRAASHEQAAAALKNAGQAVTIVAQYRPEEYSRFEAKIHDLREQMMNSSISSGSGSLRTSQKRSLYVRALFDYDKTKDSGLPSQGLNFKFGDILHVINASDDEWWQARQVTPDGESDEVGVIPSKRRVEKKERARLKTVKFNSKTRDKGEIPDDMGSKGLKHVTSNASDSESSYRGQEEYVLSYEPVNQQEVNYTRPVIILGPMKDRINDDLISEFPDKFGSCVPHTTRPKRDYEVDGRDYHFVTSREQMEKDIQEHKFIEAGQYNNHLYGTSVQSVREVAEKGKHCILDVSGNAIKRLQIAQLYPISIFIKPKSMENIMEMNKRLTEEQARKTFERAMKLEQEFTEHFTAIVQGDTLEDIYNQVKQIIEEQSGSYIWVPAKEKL
UniProt Q14139: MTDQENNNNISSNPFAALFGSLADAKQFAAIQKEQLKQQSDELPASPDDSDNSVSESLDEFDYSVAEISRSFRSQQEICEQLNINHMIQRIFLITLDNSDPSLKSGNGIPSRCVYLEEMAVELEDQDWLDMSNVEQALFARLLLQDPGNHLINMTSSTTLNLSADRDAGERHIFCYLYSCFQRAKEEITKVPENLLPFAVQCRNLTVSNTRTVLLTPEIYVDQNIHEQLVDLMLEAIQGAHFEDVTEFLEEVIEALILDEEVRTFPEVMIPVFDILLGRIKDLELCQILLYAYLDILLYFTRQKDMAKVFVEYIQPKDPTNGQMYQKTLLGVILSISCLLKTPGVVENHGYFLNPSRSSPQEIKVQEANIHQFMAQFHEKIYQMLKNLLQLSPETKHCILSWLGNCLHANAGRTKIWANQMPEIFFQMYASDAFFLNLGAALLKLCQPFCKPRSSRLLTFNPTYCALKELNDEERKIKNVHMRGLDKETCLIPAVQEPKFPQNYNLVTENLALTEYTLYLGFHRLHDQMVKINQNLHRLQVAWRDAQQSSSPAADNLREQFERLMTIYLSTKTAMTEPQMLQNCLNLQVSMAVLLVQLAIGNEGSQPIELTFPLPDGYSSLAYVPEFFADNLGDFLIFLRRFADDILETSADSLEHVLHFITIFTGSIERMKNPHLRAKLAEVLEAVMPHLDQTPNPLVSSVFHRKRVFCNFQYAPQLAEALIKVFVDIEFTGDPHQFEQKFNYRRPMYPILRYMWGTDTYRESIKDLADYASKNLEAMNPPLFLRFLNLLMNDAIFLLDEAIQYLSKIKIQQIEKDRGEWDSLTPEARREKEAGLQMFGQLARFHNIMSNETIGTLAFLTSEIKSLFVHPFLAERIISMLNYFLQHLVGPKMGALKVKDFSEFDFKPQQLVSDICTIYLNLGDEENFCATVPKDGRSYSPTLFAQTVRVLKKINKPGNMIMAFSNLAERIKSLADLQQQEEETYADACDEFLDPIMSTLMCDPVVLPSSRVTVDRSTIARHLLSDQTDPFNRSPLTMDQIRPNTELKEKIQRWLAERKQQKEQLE
UniProt Q05D32: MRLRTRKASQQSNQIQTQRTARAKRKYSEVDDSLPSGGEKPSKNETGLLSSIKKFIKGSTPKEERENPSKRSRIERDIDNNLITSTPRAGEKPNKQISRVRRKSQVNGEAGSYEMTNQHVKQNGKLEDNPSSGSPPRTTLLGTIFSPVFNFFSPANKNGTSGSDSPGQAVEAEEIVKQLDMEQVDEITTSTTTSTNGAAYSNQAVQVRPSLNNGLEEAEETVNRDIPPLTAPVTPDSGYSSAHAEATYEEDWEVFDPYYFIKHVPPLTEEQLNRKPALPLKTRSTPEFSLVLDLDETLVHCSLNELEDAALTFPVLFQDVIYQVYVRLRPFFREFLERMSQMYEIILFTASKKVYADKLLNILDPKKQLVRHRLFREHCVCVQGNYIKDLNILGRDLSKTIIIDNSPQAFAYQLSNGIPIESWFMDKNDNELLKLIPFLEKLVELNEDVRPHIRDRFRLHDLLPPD
UniProt Q08357: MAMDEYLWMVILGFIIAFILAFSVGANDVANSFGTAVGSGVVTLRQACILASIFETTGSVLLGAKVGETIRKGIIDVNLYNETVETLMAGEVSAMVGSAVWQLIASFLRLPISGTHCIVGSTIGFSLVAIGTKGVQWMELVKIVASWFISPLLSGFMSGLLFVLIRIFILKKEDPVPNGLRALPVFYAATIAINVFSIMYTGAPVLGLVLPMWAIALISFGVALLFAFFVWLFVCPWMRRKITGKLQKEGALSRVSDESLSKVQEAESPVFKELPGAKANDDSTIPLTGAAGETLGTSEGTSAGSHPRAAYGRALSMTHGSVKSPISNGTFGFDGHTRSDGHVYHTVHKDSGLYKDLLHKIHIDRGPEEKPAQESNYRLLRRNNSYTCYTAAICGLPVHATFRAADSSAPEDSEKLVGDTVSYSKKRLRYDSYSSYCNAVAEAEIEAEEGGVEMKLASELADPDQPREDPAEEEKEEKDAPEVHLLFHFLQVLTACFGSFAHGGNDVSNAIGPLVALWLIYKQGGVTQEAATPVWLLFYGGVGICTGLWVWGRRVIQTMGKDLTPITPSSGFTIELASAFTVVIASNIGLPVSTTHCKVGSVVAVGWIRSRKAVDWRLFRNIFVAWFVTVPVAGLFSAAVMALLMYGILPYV
UniProt Q13596, whole entry: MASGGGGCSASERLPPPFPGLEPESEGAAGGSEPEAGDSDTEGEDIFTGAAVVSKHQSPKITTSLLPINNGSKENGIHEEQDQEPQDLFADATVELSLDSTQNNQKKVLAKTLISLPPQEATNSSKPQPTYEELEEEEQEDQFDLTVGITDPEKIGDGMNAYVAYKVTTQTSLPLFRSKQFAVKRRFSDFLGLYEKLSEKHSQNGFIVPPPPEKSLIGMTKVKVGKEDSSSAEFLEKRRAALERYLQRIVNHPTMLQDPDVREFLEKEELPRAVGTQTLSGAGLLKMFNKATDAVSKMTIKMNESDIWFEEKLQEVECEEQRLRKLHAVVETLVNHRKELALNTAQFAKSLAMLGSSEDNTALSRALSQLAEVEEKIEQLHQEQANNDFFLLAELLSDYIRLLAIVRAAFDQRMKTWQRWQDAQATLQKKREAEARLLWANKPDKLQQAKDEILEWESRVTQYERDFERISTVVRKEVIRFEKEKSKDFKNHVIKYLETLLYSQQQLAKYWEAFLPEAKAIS
UniProt Q12972: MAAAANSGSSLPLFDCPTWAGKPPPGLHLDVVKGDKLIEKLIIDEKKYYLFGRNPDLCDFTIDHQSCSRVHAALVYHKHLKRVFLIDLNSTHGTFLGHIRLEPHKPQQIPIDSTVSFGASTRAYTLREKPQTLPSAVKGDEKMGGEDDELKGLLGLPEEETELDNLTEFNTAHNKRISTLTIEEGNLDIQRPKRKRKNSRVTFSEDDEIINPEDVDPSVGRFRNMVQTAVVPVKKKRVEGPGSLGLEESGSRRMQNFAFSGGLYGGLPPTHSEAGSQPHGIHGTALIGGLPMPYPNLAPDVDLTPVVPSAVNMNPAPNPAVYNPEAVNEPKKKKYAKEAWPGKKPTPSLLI
UniProt Q08211, whole entry: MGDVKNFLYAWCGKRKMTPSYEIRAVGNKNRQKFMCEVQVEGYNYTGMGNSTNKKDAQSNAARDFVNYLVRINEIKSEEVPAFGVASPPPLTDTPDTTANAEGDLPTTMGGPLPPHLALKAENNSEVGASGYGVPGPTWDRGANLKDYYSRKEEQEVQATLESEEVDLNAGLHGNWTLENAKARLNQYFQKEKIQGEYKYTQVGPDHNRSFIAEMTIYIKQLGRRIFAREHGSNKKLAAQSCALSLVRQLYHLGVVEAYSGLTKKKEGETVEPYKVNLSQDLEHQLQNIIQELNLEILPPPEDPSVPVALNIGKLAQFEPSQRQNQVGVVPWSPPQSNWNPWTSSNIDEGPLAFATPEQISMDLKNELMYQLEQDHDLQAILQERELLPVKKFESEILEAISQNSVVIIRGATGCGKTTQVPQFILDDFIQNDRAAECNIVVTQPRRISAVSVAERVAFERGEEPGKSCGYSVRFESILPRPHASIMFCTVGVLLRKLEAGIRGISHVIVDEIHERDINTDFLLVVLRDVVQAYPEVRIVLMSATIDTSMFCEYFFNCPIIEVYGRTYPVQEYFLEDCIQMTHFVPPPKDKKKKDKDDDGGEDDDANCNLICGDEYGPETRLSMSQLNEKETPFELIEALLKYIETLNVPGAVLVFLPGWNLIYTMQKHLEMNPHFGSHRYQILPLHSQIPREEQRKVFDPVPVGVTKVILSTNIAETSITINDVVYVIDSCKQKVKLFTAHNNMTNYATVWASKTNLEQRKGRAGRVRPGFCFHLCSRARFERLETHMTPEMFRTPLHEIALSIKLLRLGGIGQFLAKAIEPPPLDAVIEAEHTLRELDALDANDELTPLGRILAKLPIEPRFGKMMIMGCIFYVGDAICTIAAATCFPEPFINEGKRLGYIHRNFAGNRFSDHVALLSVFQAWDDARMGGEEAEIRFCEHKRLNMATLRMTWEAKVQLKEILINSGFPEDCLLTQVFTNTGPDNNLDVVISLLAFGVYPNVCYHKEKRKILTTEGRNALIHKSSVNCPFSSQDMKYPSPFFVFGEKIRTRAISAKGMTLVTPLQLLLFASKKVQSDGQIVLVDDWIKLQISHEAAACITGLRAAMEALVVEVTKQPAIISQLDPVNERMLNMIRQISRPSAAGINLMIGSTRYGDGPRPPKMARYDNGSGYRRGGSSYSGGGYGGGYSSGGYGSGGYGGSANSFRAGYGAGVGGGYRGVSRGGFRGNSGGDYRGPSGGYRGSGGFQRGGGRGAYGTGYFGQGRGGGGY
UniProt Q13131: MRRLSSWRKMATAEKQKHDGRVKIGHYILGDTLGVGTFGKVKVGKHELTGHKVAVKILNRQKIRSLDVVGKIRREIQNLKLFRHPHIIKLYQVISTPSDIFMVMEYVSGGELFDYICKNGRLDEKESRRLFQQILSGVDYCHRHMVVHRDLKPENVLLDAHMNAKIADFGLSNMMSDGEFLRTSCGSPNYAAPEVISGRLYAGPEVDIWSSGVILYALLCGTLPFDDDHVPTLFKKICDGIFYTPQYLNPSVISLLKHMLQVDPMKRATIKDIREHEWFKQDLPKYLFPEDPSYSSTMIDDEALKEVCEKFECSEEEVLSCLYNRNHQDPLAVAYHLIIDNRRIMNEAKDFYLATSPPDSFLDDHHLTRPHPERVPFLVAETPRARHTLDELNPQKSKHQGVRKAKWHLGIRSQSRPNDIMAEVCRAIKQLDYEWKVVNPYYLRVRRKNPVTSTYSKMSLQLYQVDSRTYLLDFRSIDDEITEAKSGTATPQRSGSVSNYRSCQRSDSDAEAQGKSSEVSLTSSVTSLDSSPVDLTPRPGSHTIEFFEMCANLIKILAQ
UniProt Q13618, whole entry: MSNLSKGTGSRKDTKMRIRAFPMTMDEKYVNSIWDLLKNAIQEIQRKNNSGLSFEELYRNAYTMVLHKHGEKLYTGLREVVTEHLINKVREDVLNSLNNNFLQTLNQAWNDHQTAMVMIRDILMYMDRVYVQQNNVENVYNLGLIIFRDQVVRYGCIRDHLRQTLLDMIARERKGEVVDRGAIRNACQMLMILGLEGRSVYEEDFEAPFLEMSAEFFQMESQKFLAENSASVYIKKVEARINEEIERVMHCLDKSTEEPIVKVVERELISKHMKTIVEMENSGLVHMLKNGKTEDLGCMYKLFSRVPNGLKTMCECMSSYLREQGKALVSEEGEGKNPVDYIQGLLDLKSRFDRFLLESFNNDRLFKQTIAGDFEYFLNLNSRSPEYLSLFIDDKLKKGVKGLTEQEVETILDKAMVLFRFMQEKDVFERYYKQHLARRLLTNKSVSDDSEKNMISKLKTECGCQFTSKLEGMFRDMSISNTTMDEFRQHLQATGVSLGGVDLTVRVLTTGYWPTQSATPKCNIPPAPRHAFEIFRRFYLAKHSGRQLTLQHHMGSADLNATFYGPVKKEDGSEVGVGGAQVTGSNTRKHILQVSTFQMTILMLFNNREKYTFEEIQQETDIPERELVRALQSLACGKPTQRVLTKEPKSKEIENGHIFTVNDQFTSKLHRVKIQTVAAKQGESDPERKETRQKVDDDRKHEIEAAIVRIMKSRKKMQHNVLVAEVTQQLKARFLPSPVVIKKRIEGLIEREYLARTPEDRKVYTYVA

Compound: Nc1nc2c(ncn2[C@@H]2O[C@H](COP(=O)(O)OP(=O)(O)OP(=O)(O)O)[C@@H](O)[C@H]2O)c(=O)[nH]1 [guanosine triphosphate]
Test: NP40-soluble protein abundance relative to vehicle (solubility fold change) (ratio); higher = more soluble protein in presence of GTP
Outline: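 Across three independent experiments, values are fold changes against the detergent-processed vehicle for each replicate, based on vsn-normalised intensities. The samples were Jurkat crude lysate treated with eight concentrations (0.1 to 10 mM) for 10 min at room temperature and then 3 min at 37 °C. Lysate was solubilised with 0.8% NP40 and benzonase, ultracentrifuged, and the supernatant analysed by TMT-labelled LC-MS/MS.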

Target	NP40-soluble protein abundance (concentration: 0.1mM)	NP40-soluble protein abundance (concentration: 0.5mM)	NP40-soluble protein abundance (concentration: 1mM)	NP40-soluble protein abundance (concentration: 2mM)	NP40-soluble protein abundance (concentration: 4mM)	NP40-soluble protein abundance (concentration: 6mM)	NP40-soluble protein abundance (concentration: 8mM)	NP40-soluble protein abundance (concentration: 10mM)
UniProt Q12959-4|A0A0C4DFT3|Q12959 and related entries	1 ± 0.032	0.987 ± 0.036	0.952 ± 0.048	0.951 ± 0.085	0.908 ± 0.083	0.929 ± 0.1	0.912 ± 0.093	0.908 ± 0.085
UniProt Q13136 and related entries	0.997 ± 0.021	0.994 ± 0.042	1.02 ± 0.015	1.03 ± 0.068	1.03 ± 0.067	0.985 ± 0.041	1.04 ± 0.075	1.03 ± 0.074
KEAP1 (UniProt Q14145)	1.05 ± 0.15	0.977 ± 0.077	0.918 ± 0.05	0.912 ± 0.16	0.916 ± 0.072	0.913 ± 0.08	0.91 ± 0.043	0.923 ± 0.12
SLC39A6 (UniProt Q13433)	0.893 ± 0.069	0.953 ± 0.093	0.934 ± 0.06	0.914 ± 0.053	0.8761 ± 0.008	0.982 ± 0.061	0.933 ± 0.021	0.989 ± 0.021
PPAT (UniProt Q06203)	1.01 ± 0.04	1.03 ± 0.071	0.9747 ± 0.0041	0.987 ± 0.083	0.976 ± 0.057	0.971 ± 0.067	0.904 ± 0.0093	0.903 ± 0.066
UniProt Q13427 and related entries	0.978 ± 0.092	1.11 ± 0.12	1.18 ± 0.13	1.16 ± 0.098	1.09 ± 0.13	1.12 ± 0.12	1.21 ± 0.18	1.2 ± 0.2
UniProt Q14139 and related entries	1.04 ± 0.056	1.02 ± 0.027	0.98 ± 0.022	0.975 ± 0.05	1 ± 0.046	0.948 ± 0.047	0.975 ± 0.043	0.935 ± 0.07
UniProt Q13033-2|H0YJT2	0.991 ± 0.014	1.04 ± 0.016	1.04 ± 0.038	1.02 ± 0.071	1.01 ± 0.071	1.03 ± 0.076	1.08 ± 0.12	1.06 ± 0.12
UniProt Q14671 and related entries	0.981 ± 0.026	0.967 ± 0.028	0.988 ± 0.035	0.931 ± 0.063	0.909 ± 0.067	0.924 ± 0.075	0.948 ± 0.012	0.94 ± 0.028
CTDSPL2 (UniProt Q05D32)	0.984 ± 0.059	0.968 ± 0.074	1.03 ± 0.071	1.05 ± 0.062	1.15 ± 0.048	1.15 ± 0.058	1.2 ± 0.041	1.29 ± 0.047
UniProt Q08J23 and related entries	1.03 ± 0.013	1.02 ± 0.026	0.996 ± 0.017	0.973 ± 0.025	1.01 ± 0.03	1.01 ± 0.021	1.05 ± 0.015	1.04 ± 0.012
SLC20A2 (UniProt Q08357)	0.951 ± 0.045	0.942 ± 0.051	0.982 ± 0.04	0.898 ± 0.047	0.965 ± 0.077	0.956 ± 0.077	0.965 ± 0.037	0.912 ± 0.15
UniProt Q13595 and related entries	1.03 ± 0.051	1.22 ± 0.049	1.25 ± 0.17	1.32 ± 0.13	1.26 ± 0.24	1.22 ± 0.26	1.26 ± 0.26	1.26 ± 0.3
UniProt Q13596 and related entries	0.953 ± 0.093	0.951 ± 0.086	0.928 ± 0.1	0.894 ± 0.087	0.898 ± 0.087	0.877 ± 0.067	0.888 ± 0.093	0.866 ± 0.077
PPP1R8 (UniProt Q12972)	0.979 ± 0.062	0.969 ± 0.074	0.945 ± 0.098	0.902 ± 0.063	0.929 ± 0.11	0.921 ± 0.12	0.929 ± 0.093	0.921 ± 0.075
DSG2 (UniProt Q14126)	1.03 ± 0.024	0.989 ± 0.032	1.04 ± 0.11	0.972 ± 0.089	0.987 ± 0.11	1.02 ± 0.14	1.03 ± 0.14	1 ± 0.14

Target	NP40-soluble protein abundance (concentration: 0.1mM)	NP40-soluble protein abundance (concentration: 0.5mM)	NP40-soluble protein abundance (concentration: 1mM)	NP40-soluble protein abundance (concentration: 2mM)	NP40-soluble protein abundance (concentration: 4mM)	NP40-soluble protein abundance (concentration: 6mM)	NP40-soluble protein abundance (concentration: 8mM)	NP40-soluble protein abundance (concentration: 10mM)
DHX9 (UniProt Q08211)	1.03 ± 0.088	1.13 ± 0.16	1.06 ± 0.17	1.2 ± 0.26	1.32 ± 0.28	1.49 ± 0.37	1.52 ± 0.3	1.64 ± 0.33
FOXK2 (UniProt Q01167)	0.954 ± 0.045	0.977 ± 0.06	0.979 ± 0.03	0.959 ± 0.039	0.985 ± 0.039	0.979 ± 0.057	1 ± 0.093	0.993 ± 0.067
UniProt Q12797 and related entries	1.04 ± 0.12	1.02 ± 0.028	0.986 ± 0.057	0.902 ± 0.15	0.985 ± 0.021	1.06 ± 0.08	0.974 ± 0.14	1.03 ± 0.033
COTL1 (UniProt Q14019)	0.897 ± 0.018	0.928 ± 0.045	0.881 ± 0.042	0.862 ± 0.073	0.828 ± 0.073	0.856 ± 0.08	0.809 ± 0.093	0.841 ± 0.11
KHDRBS1 (UniProt Q07666)	0.919 ± 0.033	0.93 ± 0.032	0.989 ± 0.042	0.968 ± 0.052	1.01 ± 0.074	1.03 ± 0.057	1.1 ± 0.087	1.11 ± 0.085
CKAP4 (UniProt Q07065)	0.997 ± 0.085	0.942 ± 0.1	1.04 ± 0.067	1.04 ± 0.095	1.12 ± 0.11	1.1 ± 0.12	1.11 ± 0.12	1.14 ± 0.08
HMGCS1 (UniProt Q01581)	0.961 ± 0.036	0.979 ± 0.022	0.933 ± 0.044	0.919 ± 0.035	0.894 ± 0.043	0.902 ± 0.033	0.872 ± 0.041	0.879 ± 0.044
UniProt Q13363 and related entries	1.06 ± 0.029	1.02 ± 0.064	0.921 ± 0.046	0.933 ± 0.084	0.944 ± 0.067	0.905 ± 0.0099	0.852 ± 0.12	0.835 ± 0.085
UniProt Q12872 and related entries	0.979 ± 0.031	1.04 ± 0.027	1.17 ± 0.014	1.24 ± 0.024	1.42 ± 0.016	1.52 ± 0.068	1.7 ± 0.13	1.78 ± 0.13
PRPF4B (UniProt Q13523)	1.04 ± 0.027	1.13 ± 0.05	1.19 ± 0.048	1.24 ± 0.056	1.37 ± 0.072	1.44 ± 0.11	1.52 ± 0.16	1.57 ± 0.19
GALK2 (UniProt Q01415)	1.04 ± 0.06	0.915 ± 0.073	0.955 ± 0.028	1.08 ± 0.17	0.989 ± 0.086	0.869 ± 0.028	0.843 ± 0.076	0.883 ± 0.086
UniProt Q13131 and related entries	1.03 ± 0.029	1.06 ± 0.072	0.9331 ± 0.0071	0.989 ± 0.077	0.962 ± 0.065	0.941 ± 0.073	0.907 ± 0.036	0.906 ± 0.062
UniProt Q06124 and related entries	0.969 ± 0.037	0.981 ± 0.031	0.929 ± 0.05	0.916 ± 0.067	0.886 ± 0.047	0.893 ± 0.063	0.876 ± 0.064	0.877 ± 0.07
CUL3 (UniProt Q13618)	1.04 ± 0.046	1.05 ± 0.066	0.956 ± 0.015	0.973 ± 0.058	0.938 ± 0.049	0.932 ± 0.03	0.917 ± 0.011	0.886 ± 0.059
UniProt Q13190 and related entries	0.972 ± 0.046	0.936 ± 0.026	0.977 ± 0.049	0.975 ± 0.047	1.03 ± 0.055	0.962 ± 0.036	0.932 ± 0.045	0.957 ± 0.053
UniProt Q06210 and related entries	1.02 ± 0.04	1.05 ± 0.092	0.962 ± 0.034	0.991 ± 0.086	0.96 ± 0.052	0.977 ± 0.069	0.913 ± 0.01	0.901 ± 0.061

Full records, quoted from the list:
HMGCS1 (UniProt Q01581) is listed as NP40-soluble protein abundance (concentration: 0.1mM): 0.961 ± 0.036; NP40-soluble protein abundance (concentration: 0.5mM): 0.979 ± 0.022; NP40-soluble protein abundance (concentration: 1mM): 0.933 ± 0.044; NP40-soluble protein abundance (concentration: 2mM): 0.919 ± 0.035; NP40-soluble protein abundance (concentration: 4mM): 0.894 ± 0.043; NP40-soluble protein abundance (concentration: 6mM): 0.902 ± 0.033; NP40-soluble protein abundance (concentration: 8mM): 0.872 ± 0.041; NP40-soluble protein abundance (concentration: 10mM): 0.879 ± 0.044
PRPF4B (UniProt Q13523) is listed as NP40-soluble protein abundance (concentration: 0.1mM): 1.04 ± 0.027; NP40-soluble protein abundance (concentration: 0.5mM): 1.13 ± 0.05; NP40-soluble protein abundance (concentration: 1mM): 1.19 ± 0.048; NP40-soluble protein abundance (concentration: 2mM): 1.24 ± 0.056; NP40-soluble protein abundance (concentration: 4mM): 1.37 ± 0.072; NP40-soluble protein abundance (concentration: 6mM): 1.44 ± 0.11; NP40-soluble protein abundance (concentration: 8mM): 1.52 ± 0.16; NP40-soluble protein abundance (concentration: 10mM): 1.57 ± 0.19
